US8975259B2, “Compositions and methods for inhibiting G protein signaling” (University of Rochester, priority 2007, dated 2015)
For at least one compound, name, drawing or mass did not settle the structure.

Tests used:
[1] = test system: opioid-induced antinociception in mice; experiment: 55° C. warm-water tail-flick antinociception; type: in vivo, mouse; conditions: i.c.v., 20 min, 55° C. tail-flick; 95% CL in parentheses
[2] = test system: human δ opioid receptor (hDOR-CHO cells); experiment: Total inositol phosphate assay in hDOR-CHO cells; type: cell-based; conditions: DPDPE, Deltorphin II, M119 10 μM; naltrindole 100 μM; result in words
Method: Chinese hamster ovary (CHO) cells stably expressing either the human κ (hKOR-CHO), δ (hDOR-CHO)(L. Toll, Stanford Research Institute, Palo Alto, Calif.) or μ (hMOR-CHO)(G. Uhl, National Institute on Drug Abuse, Baltimore, Md.) opioid receptor were used in the experiments. Cells in 6-well plates were labeled by adding 4 μCi of [^3H]inositol for 24 hr in inositol-free F-10 media, without serum. After labeling, LiCl was added directly to the labeling media at a final concentration of 10 mM. Ligands or peptides were added at the same time. The final volume of each well was 1 mL. The plates were put back in to the incubator at 37° C. for 30 min after which time the medium was aspirated and the plates were washed twice with 1× PBS. Ice-cold 50 mM formic acid, 1 mL, was added to the plates which were placed in the cold room at 4° C. for 30 min. After the incubation, the contents of the plates were applied to Dowex AG1-X8 columns and allowed to flow all the way through the column. The columns were washed, twice each, with 50 and 100 mM formic acid, for a total of four washes, followed by elution of the IP-containing fraction with 3 mL of 1.2 M ammonium formate/0.1 M formic acid. The eluted fraction was mixed with Scintisafe scintillation fluid, for high salt, and counted. The data are represented as the fold increase over control in total inositol phospates. […]

[3] = test system: NADPH oxidase activity in fMLP-challenged HL60 cells; experiment: fMLP-dependent superoxide production (NBT) in differentiated HL60 cells; type: cell-based, human; conditions: 10 μM compounds or 100 nM wortmannin, 250 nM fMLP; result in words
Method: Differentiated HL60 cells stably expressing GFP-PH-Akt were challenged with 250 nM fMLP in the presence and absence of 10 μM concentrations of the indicated compounds. Translocation of GFP-PH-Akt to the plasma membrane was evaluated by Western blot. Quantification shown below. ***, P<0.001 analysis of variance (ANOVA) is statistically different from control (PBS+vehicle). […] Differentiated HL60 cells were challenged with 1 μM fMLP in the presence and absence of 10 μM concentrations of the indicated compounds. Rac1 activation was assessed by Western blots of affinity-precipitated GTP-Rac1 from HL60 cell lysates. Western blot shown is representative of three independent experiments and quantitation contains data pooled from three independent experiments±S.E.M. *P<0.05 ANOVA is statistically different from control (DMSO only). n=3. […] Differentiated HL60 cells were challenged with 250 nM fMLP or 250 nM PMA in the presence and absence of 10 μM compounds or 100 nM Wortmannin (Wtmn). NADPH oxidase activity was determined after reaction with NBT by absorbance at 540 nm. […]
The nitro blue tetrazolium (NBT) method was used to assess the effects of Gβγ inhibitors on NADPH oxidase activity. […] Cell pellets were then resuspended in 200 μl of DMSO, transferred to a 96-well plate, and absorbance was measured at 540 nm. […]

| Compound | ED50 of opioid agonist alone [1] | effect on IP generation over control treated cells [2] | effect on fMLP-dependent superoxide production [3] |
| --- | --- | --- | --- |
| CC(C)[C@H](NC(=O)[C@H](CCC(=O)O)NC(=O)[C@H](Cc1ccccc1)NC(=O)[C@@H](C)NC(=O)[C@@H](N)Cc1ccc(O)cc1)C(=O)N[C@H](C(=O)NCC(N)=O)C(C)C [Deltorphin II, [D-Ala^2]-Deltorphin II] | 11 nmol | neither DPDPE (10 μM) (FIG. 15C) nor Deltorphin II (10 μM) (FIG. 15D) significantly increased IP generation |  |
| COC[C@H]1OC(=O)c2coc3c2[C@@]1(C)C1=C(C3=O)[C@@H]2CCC(=O)[C@@]2(C)C[C@H]1OC(C)=O [Wortmannin, wortmannin] |  |  | blocked |
